# Results as given in PMC10162545.
# These are yes or no findings as the source states them, for the method shown. Binding seen in cells or lysates may run through a third protein. Some binding calls cover weakened binding; strength is not graded here. Sequences can lack the tags named with a protein.
# T1: PINK1::Myc (genomically tagged PINK1) (Drosophila) (UniProt Q0KHV6)
# T1 sequence: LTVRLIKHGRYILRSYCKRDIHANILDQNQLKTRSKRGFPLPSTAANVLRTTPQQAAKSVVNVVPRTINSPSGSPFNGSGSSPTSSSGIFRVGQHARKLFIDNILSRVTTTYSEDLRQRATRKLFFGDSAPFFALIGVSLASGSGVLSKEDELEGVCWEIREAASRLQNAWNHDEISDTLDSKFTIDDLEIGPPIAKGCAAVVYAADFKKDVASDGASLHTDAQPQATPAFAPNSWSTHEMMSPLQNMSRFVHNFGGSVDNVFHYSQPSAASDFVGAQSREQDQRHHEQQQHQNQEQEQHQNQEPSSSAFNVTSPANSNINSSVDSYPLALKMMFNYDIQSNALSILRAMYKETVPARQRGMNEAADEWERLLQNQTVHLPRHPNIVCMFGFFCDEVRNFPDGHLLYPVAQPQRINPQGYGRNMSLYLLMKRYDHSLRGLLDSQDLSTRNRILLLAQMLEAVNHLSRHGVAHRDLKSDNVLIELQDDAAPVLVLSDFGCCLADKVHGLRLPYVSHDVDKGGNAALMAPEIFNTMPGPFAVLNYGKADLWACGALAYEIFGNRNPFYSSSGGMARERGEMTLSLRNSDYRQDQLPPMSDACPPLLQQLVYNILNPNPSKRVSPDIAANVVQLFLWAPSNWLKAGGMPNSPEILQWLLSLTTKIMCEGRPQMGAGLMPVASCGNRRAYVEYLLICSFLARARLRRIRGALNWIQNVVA
# B1: Bendless, C-terminal V5-tagged (Ben::V5) (enzyme, UniProt P35128 1-151)
# chain: MSSLPRRIIKETQRLMQEPVPGINAIPDENNARYFHVIVTGPNDSPFEGGVFKLELFLPEDYPMSAPKVRFITKIYHPNIDRLGRICLDVLKDKWSPALQIRTILLSIQALLSAPNPDDPLANDVAELWKVNEAEAIRNAREWTQKYAVED
# Target: T1, PINK1::Myc (genomically tagged PINK1) (Drosophila)
# Assay: co-IP; lysate of 25-30 adult flies (w;PINK1::Myc/+;Actin>Gal4/UAS-ben::V5) in co-IP buffer (40mM HEPES pH 7.5, 120mM NaCl, 1mM EDTA, 0.3% CHAPS, phosphatase inhibitors); PINK1::Myc held on Myc beads 4 hrs at 4°C, washed thrice, eluted with Myc peptide; western blot for Ben::V5
binder,measurement,value
B1,binding,binds
